Data from article doi:10.1101/2021.12.07.471635.

Protein sequences, listed by entry. Tags and fused reporters are not part of them.
UniProt P51114: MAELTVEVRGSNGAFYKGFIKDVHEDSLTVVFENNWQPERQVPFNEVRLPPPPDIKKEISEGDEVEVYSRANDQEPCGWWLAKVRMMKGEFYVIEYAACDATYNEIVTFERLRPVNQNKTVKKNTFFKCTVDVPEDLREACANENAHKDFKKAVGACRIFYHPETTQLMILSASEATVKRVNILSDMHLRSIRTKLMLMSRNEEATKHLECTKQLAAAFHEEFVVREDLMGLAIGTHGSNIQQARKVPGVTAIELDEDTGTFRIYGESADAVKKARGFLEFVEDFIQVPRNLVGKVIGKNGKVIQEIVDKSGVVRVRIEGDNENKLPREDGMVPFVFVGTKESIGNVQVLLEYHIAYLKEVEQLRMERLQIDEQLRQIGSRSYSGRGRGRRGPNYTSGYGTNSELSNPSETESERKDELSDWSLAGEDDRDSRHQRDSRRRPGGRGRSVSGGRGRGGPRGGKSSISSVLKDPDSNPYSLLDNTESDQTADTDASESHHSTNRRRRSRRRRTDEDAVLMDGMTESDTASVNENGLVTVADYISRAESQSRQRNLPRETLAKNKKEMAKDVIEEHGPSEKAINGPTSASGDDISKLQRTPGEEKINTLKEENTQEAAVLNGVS
UniProt Q14978: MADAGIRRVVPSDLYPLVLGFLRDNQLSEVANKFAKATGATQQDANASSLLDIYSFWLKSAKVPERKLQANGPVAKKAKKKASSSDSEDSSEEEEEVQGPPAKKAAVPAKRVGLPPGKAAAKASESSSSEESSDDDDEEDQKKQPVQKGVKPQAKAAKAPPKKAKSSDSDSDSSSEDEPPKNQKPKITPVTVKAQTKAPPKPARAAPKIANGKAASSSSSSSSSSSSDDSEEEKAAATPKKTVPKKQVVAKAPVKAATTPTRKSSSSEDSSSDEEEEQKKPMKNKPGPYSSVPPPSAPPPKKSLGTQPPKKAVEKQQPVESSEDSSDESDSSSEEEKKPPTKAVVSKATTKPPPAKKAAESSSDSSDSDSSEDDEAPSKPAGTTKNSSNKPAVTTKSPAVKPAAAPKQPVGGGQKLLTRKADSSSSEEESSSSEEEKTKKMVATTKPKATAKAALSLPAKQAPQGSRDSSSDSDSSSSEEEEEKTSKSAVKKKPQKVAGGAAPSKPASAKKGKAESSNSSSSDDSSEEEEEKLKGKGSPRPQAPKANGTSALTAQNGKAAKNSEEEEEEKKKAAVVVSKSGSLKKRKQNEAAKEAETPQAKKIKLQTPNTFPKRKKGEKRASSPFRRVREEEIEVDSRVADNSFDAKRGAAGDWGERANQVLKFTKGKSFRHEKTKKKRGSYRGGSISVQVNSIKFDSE
UniProt Q9NR30: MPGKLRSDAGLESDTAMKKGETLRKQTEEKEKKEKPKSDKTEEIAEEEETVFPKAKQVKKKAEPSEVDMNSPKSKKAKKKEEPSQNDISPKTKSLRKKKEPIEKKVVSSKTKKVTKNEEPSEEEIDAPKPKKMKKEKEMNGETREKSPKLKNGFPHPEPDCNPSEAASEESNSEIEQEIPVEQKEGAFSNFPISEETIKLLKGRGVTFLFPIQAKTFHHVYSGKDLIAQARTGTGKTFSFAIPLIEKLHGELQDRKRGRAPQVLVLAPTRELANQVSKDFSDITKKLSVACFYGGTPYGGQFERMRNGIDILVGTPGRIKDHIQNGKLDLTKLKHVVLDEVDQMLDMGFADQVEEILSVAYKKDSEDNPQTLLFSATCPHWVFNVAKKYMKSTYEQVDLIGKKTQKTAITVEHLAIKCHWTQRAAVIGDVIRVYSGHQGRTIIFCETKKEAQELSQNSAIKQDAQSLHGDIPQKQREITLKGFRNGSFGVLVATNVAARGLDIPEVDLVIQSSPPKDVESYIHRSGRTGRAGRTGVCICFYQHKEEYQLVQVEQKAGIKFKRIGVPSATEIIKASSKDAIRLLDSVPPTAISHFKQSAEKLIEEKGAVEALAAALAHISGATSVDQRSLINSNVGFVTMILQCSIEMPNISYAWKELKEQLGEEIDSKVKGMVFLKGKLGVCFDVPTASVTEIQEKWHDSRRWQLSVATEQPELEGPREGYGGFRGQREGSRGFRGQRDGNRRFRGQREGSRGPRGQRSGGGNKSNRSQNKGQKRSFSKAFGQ

Target: Fragile-X-mental retardation related protein 1 (FXR1) (human (endogenous in THP1)) (UniProt P51114)
Experiment: affinity purification with mass spectrometry

Row | binding | Substance
1 | binds | NOLC1 (from UniProt Q14978 1-699)
2 | binds | DDX21 (from UniProt Q9NR30 1-783)

No constants are given. Whether binding was seen depends on the method and setting. In cells and extracts the contact can be indirect. These calls come from enrichment with a bait or labelling near it, and not all partners need be listed.
